In patent US20070003585A1, “Topical skin treating compositions” (STIEFEL LABORATORIES, INC., priority 2005, published 2007):
Read-outs that look alike come from different tables or passages of the source. Further values from the same series stand in other lists.

Settings: Example 10 composition, initial […]

Compound: CCOC(=O)c1ccc(C#Cc2ccc3c(c2)C(C)(C)CCS3)nc1 [Tazarotene]
- Tazarotene (as % w/w) (6 months, 6° C.): 0.101 % w/w
- Tazarotene (as % w/w) (6 months, 25° C.): 0.091 % w/w
- Tazarotene (as % w/w) (6 months, 30° C.): 0.085 % w/w
- Tazarotene (as % w/w) (6 months, 40° C.): 0.014 % w/w
- Tazarotene (as % w/w) (90 days, 6° C.): 0.106 % w/w
- Tazarotene (as % w/w) (90 days, 25° C.): 0.088 % w/w
- Tazarotene (as % w/w) (90 days, 30° C.): 0.088 % w/w
- Tazarotene (as % w/w) (90 days, 40° C.): 0.076 % w/w
